First the molecules themselves.
T1: FLAG–HA tagged Prdm14 (FH-Prdm14), stably expressed in mESCs (mouse) (UniProt E9Q3T6)
T1 sequence: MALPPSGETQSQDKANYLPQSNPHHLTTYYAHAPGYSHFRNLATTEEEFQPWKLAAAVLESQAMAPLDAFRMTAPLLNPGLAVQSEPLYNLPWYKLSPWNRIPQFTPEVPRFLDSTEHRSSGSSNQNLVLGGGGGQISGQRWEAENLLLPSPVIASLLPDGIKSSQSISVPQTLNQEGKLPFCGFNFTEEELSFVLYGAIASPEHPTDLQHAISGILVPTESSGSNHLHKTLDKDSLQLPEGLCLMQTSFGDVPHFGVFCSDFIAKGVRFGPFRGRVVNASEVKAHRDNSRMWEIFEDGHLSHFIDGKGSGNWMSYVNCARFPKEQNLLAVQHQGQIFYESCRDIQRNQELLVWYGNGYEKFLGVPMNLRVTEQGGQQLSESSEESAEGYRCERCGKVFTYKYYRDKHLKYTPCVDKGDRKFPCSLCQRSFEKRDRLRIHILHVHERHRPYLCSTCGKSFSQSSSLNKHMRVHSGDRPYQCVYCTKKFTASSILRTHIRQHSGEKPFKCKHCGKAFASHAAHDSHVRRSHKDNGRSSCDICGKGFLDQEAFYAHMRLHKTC

T2: endogenous Prdm14 of wt mESCs (mouse (endogenous in mESCs)) (UniProt E9Q3T6)
T2 sequence: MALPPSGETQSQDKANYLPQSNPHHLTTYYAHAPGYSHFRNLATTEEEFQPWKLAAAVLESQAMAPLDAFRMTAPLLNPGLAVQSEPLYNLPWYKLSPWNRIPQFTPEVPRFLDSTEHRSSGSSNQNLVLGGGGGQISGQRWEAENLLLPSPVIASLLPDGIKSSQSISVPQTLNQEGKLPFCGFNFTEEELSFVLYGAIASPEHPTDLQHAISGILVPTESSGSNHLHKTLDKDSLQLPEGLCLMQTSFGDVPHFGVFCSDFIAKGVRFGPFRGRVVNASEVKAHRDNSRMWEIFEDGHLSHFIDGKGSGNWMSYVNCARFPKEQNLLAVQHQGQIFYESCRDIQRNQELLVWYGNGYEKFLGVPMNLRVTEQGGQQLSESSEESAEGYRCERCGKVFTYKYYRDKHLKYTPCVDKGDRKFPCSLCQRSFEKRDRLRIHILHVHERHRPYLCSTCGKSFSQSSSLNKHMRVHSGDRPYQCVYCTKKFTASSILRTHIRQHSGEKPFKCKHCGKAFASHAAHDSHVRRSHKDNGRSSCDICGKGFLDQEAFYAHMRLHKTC

B1: Mtg8, endogenous in mESCs (protein, UniProt Q61909 1-577)
chain: MPDRTEKHSTMPDSPVDVKTQSRLTPPAMPPPPTTQGAPRTSSFTPTTLTNGTSHSPTALNGAPSPPNGFSNGPSSSSSSSLANQQLPPACGARQLSKLKRFLTTLQQFGNDISPEIGERVRTLVLGLVNSTLTIEEFHSKLQEATNFPLRPFVIPFLKANLPLLQRELLHCARLAKQNPAQYLAQHEQLLLDASTTSPVDSSELLLDVNENGKRRTPDRTKENGFDREPLHSEHPSKRPCTISPGQRYSPNNGLSYQPNGLPHPTPPPPQHYRLDDMAIAHHYRDSYRHPSHRDLRDRNRPMGLHGTRQEEMIDHRLTDREWAEEWKHLDHLLNCIMDMVEKTRRSLTVLRRCQEADREELNYWIRRYSDAEDLKKGGSSSSSHSRQQSPVNPDPVALDAHREFLHRPASGYVPEEIWKKAEEAVNEVKRQAMTELQKAVSEAERKAHDMITTERAKMERTVAEAKRQAAEDALAVINQQEDSSESCWNCGRKASETCSGCNTARYCGSFCQHKDWEKHHHICGQTLQAPQQGDTPAVSSSVTPSSGAGSPMDTPPAATPRSTTPGTPSTIETTPR
B2: Mtg16, endogenous in mESCs (protein, UniProt O54972 1-620)
chain: MSQASTTTLESGALLSGPRGLQYGSPAHRKEKAAAMPDSPAEVKTQPRSTPPSMPPPPPTSSQGATRPPSFTPHTHGEDGPATSLPHGRFHGCLKWSMVCLLMNGSSHSPTAIHGAPSTPNGFSNGPATSSTASLSTQHLPPACGARQLSKLKRFLTTLQQFGSDISPEIGERVRTLVLGLVNSTLTIEEFHAKLQEATNFPLRPFVIPFLKANLPLLQRELLHCARLAKQTPAQYLAQHEQLLLDASATSPVDSSELLLEVNENGKRRTPDRTKENGSDRDPLHPDHLSKRSCTLSPAQRCSPSNGLPHPTPPPPPHYRLEDMAMAHHFRDSYRHPDPRELRERHRPLAIPGSRQEEVIDHRLTEREWAEEWKHLNSLLNCIMDMVEKTRRSLTVLRRCQEADREELNHWIRCYSDSEEGKKGPTPISARSLNSCSGPEGSQLDVHRDFTPRTLSGYMPEEIWRKAEEAVNEVKRQAMSELQKAVSDAERKAHELITTERAKMERALAEAKRQASEDALTVINQQEDSSESCWNCGRKASETCSGCNAARYCGSFCQHKDWEKHHHVCGQSLQGPAAAVADPLPGQPDATASPSEAGSAGPSRPCSPGPPGPLDAAVPR
B3: Mtgr1 (myeloid translocation gene related 1), endogenous in mESCs (protein, UniProt O70374 1-594)
chain: MVGVPGAAAFQLGCEKRVPAMPGSPVEVKIQSRSSPPIMPPLPPINPGGPRPVSFTPTALSNGINHSPPTLNGAPSPPQRFSNGPASSTSSALTNQQLPATCGARQLSKLKRFLTTLQQFGNDISPEIGEKVRTLVLALVNSTVTIEEFHCKLQEATNFPLRPFVIPFLKANLPLLQRELLHCARAAKQTPSQYLAQHEHLLLNTSIASPADSSELLMEVHGNGKRPSPERRDENNFERDTVPPEPPAKRVCTISPAPRHSPALTVPLMNPGGQFHPTPPPLQHYTLEDIATSHLYREPNKMLEHREVRERHHNLSLNGGYQDELVDHRLTEREWADEWKHLDHALNCIMEMVEKTRRSMAVLRRCQESDREELNYWKRRFNENTELRKTGTELVSRQHSPGSTDSLSNDSQREFTSRPATGYVPVEFWKKTEEAVNKVKIQAMSEVQKAVAEAEQKAFEVIATERARMEQTIADVKRQAAEDAFLVINEQEESTENCWNCGRKASETCSGCNIARYCGSFCQHKDWERHHRLCGQSLHGHSPHSQSRPLLPGGRGSARSADCSVPSPALDKTSATTSRSSTPASVTAIDANGL
B4: Tblr1, endogenous in mESCs (protein, UniProt Q8BHJ5 1-514)
chain: MSISSDEVNFLVYRYLQESGFSHSAFTFGIESHISQSNINGALVPPAALISIIQKGLQYVEAEVSINEDGTLFDGRPIESLSLIDAVMPDVVQTRQQAYRDKLAQQHAAAAAAAAAATNQQGSAKNGENTANGEENGAHTIANNHTDMMEVDGDVEIPSNKAVVLRGHESEVFICAWNPVSDLLASGSGDSTARIWNLSENSTSGPTQLVLRHCIREGGQDVPSNKDVTSLDWNSEGTLLATGSYDGFARIWTKDGNLASTLGQHKGPIFALKWNKKGNFILSAGVDKTTIIWDAHTGEAKQQFPFHSAPALDVDWQSNNTFASCSTDMCIHVCKLGQDRPIKTFQGHTNEVNAIKWDPTGNLLASCSDDMTLKIWSMKQDNCVHDLQAHNKEIYTIKWSPTGPGTNNPNANLMLASASFDSTVRLWDVDRGICIHTLTKHQEPVYSVAFSPDGRYLASGSFDKCVHIWNTQTGALVHSYRGTGGIFEVCWNAAGDKVGASASDGSVCVLDLRK
B5: Tbl1, endogenous in mESCs (protein, UniProt Q9QXE7 1-527)
chain: MSITSDEVNFLVYRYLQESGFSHSAFTFGIESHISQSNINGTLVPPAALISILQKGLQYVEAEISINEDGTVFDGRPIESLSLIDAVMPDVVQTRQQAFREKLAQQQANAAAAAAAAAATATSTAATTPAAAAQQNPPKNGEATVNGEENGAHAINNHSKPMEIDGDVEIPPSKATVLRGHESEVFICAWNPVSDLLASGSGDSTARIWNLNENSNGGSTQLVLRHCIREGGHDVPSNKDVTSLDWNSDGTLLATGSYDGFARIWTEDGNLASTLGQHKGPIFALKWNKKGNYILSAGVDKTTIIWDAHTGEAKQQFPFHSAPALDVDWQNNTTFASCSTDMCIHVCRLGCDRPVKTFQGHTNEVNAIKWDPSGMLLASCSDDMTLKIWSMKQDACVHDLQAHSKEIYTIKWSPTGPATSNPNSNIMLASASFDSTVRLWDVERGVCIHTLTKHQEPVYSVAFSPDGKYLASGSFDKCVHIWNTQSGSLVHSYRGTGGIFEVCWNARGDKVGASASDGSVCVLDLRK

Results are given in words; binding and its absence hold for the method and conditions named. In cells and extracts the contact can be indirect. A yes stands for co-enrichment or nearness to the bait. Other partners may have been found. For part of these data: Where a sequence is shown, tags or fusion partners need not be part of it.

The target in the first assay is T1, FLAG–HA tagged Prdm14 (FH-Prdm14), stably expressed in mESCs (mouse). The assay is described as follows: affinity purification with mass spectrometry; two-step immunopurification (FLAG M2 beads with peptide elution, then HA antibody) from FH-Prdm14 mESC nuclear extracts, wt mESCs as control; SDS-PAGE, silver stain, mass spectrometry.
B1: the binding result was “binds”.

For the molecule B2, the binding result was “binds”.

As for B3, the binding result is “binds”.

Take B4: the binding entry is on record as “binds”.

On to B5, for which the binding result is “binds”.

The target of another assay is T2, endogenous Prdm14 of wt mESCs (mouse (endogenous in mESCs)). The assay can be described thus: affinity purification with mass spectrometry; proteins recovered with endogenous Prdm14 captured by Mb(S4) from wt mESC extracts; mass spectrometry.
As for B3, the binding entry is listed as “binds”.

Source of the values: paper PMC4749557.
